Experimental data published in PubChem BioAssay AID445 (National Center for Advancing Translational Sciences (NCATS), 2006).
Some of the results follow. The main result of the screen is listed elsewhere. These columns were measured beside it and carry no call. Compounds called inactive in the main read-out are mostly missing here. Words in brackets tell the shape of the fitted curve; partial curves, single points and poor fits give uncertain potencies.

experiment: IkB Signaling; details: ABC-DLBCL IkBa-CBG/CBR dual luciferase ratio (green luciferase fused to IkBa over red control in OCI-Ly3 lymphoma cells), 4 h; measured here: control luc red channel unless noted
Method in brief: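 Luminescence ratio of IκBα-fused green versus native red beetle luciferase in OCI-Ly3 cells, 4 h post-doxycycline with compound; red signal alone, scaled from basal (0%) to zero light (-100%), flagged nonspecific or cytotoxic effects.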

| SMILES | AC50 |
| --- | --- |
| O=C(COc1ccccc1)NCc1ccc2c(c1)CCN2C(=O)c1ccccc1 | 0.0794 µM [falling, full curve, poor fit] |
| COc1ccc(OC)c(S(=O)(=O)N2Cc3ccccc3CC2C(=O)Nc2nccs2)c1 (stereo unspecified) | 5.01 µM [falling, partial curve] |
| COc1ccc(-c2cc(NCc3ccccn3)n3ncnc3n2)cc1 | 39.8 µM [rising, single point] [measured here: IkB-luc green channel] |
| Cc1ccc(C)c(Nc2nc(-c3ccccc3)c3cc(Br)ccc3n2)c1 | 25.1 µM [falling, partial curve, poor fit] |
| COc1ccc(CCNC(=O)CCCCn2c(=O)c3ccccc3n(CC(=O)Nc3ccc(C)cc3C)c2=O)cc1OC | 39.8 µM [falling, single point] |
| CCN(CCNC(=O)CS(=O)(=O)Cc1nc(-c2cccc(OC)c2)oc1C)c1ccccc1 | 15.8 µM [falling, partial curve] |
| O=C(Nc1cccc(Cl)c1)c1cc(-c2ccc3c(c2)OCCO3)on1 | 0.0398 µM [falling, full curve] |
| Cc1nnc(N2CCCC(C(=O)Nc3cccc(C(F)(F)F)c3)C2)c2nn(-c3ccccc3)c(C)c12 (stereo unspecified) | 39.8 µM [falling, partial curve] |
| Cc1cccc(N(C)C(CNS(=O)(=O)c2ccccc2)c2ccccc2)c1 (stereo unspecified) | 12.6 µM [falling, partial curve] |
| CCN(CC)CCNC(=O)C(=O)NCC(c1cccnc1)N1CCN(c2ccccc2)CC1 (stereo unspecified) | 39.8 µM [falling, single point] |
| CCC(=O)c1ccc(OCC(O)Cn2c(C)nc3ccccc32)cc1 (stereo unspecified) | 5.01 µM [falling, partial curve] |
| CC(C)S(=O)(=O)c1oc(-c2ccc(F)cc2)nc1S(=O)(=O)c1ccccc1 | 1.58 µM [falling, partial curve] |
| COc1cc(NC(=O)c2nn(-c3ccc(C)cc3)c(=O)c3c2c2ccccc2n3C)cc(OC)c1OC | 20 µM [rising, partial curve, poor fit] |
| CCOC(=O)c1ccccc1NS(=O)(=O)c1ccc(N2CCCCS2(=O)=O)cc1 | 15.8 µM [falling, partial curve] |
| CCOc1ccc(-n2nc(CO)c(C(=O)NCc3cccnc3)n2)cc1 | 15.8 µM [falling, single point] |
| COc1cccc(N2CCN(C(=O)c3cc4c(=O)n(Cc5ccccc5)ccc4nc3C)CC2)c1 | 25.1 µM [falling, single point] |
| Cc1cccn2c(=O)c(C(=O)NCc3ccccc3Cl)c(O)nc12 | 12.6 µM [falling, partial curve] |
| Cc1ccc(NC(=O)CC2SC3=NCCN3C2=O)cc1 (stereo unspecified) | 12.6 µM [falling, partial curve] |
| COc1cc(C)ccc1OCCCn1c(-c2ccc(Cl)cc2)nc2ccccc2c1=O | 12.6 µM [falling, partial curve] |
| Cc1cccc(NC(=O)c2sc3nc4c(cc3c2N)CCCCCC4)c1C | 1.26 µM [rising, full curve] [measured here: IkB-luc green channel] |
| COc1ccc(-n2nc(C(=O)Nc3ccc(Cl)cn3)c3c4ccccc4n(C)c3c2=O)cc1Cl | 12.6 µM [falling, partial curve] |

Compounds from the list above that have fluorine (2):

| SMILES | AC50 |
| --- | --- |
| Cc1nnc(N2CCCC(C(=O)Nc3cccc(C(F)(F)F)c3)C2)c2nn(-c3ccccc3)c(C)c12 (stereo unspecified) | 39.8 µM [falling, partial curve] |
| CC(C)S(=O)(=O)c1oc(-c2ccc(F)cc2)nc1S(=O)(=O)c1ccccc1 | 1.58 µM [falling, partial curve] |

The list goes on.

| SMILES | AC50 |
| --- | --- |
| Cc1ccc(CCNC(=O)c2cc(Nc3ccc(C)c(C)c3)nc3ccccc23)cc1 | 0.2 µM [falling, full curve, poor fit] |
| COc1ccc(C2C(C(N)=O)=C(C)Nc3nc(CCCO)nn32)cc1 (stereo unspecified) | 1 µM [rising, full curve] |
| CC(C)C1C(=O)Nc2ccc(S(=O)(=O)NCc3ccc(Cl)cc3)cc21 (stereo unspecified) | 20 µM [falling, partial curve] |
| Cc1ccc(NC(=O)CSc2c3c(nc4ccccc24)CCCC3)cc1F | 12.6 µM [falling, partial curve] |
| NC(=O)c1nsnc1-c1ccccc1O | 12.6 µM [falling, partial curve] |
| CC(=O)c1cccc(NC(=O)c2c(-c3ccccc3)c(-c3ccccc3)nn(C)c2=O)c1 | 25.1 µM [falling, partial curve] |
| Cc1cc(C(F)(F)F)nn1-c1nc(-c2ccccc2)cc(C(F)(F)F)n1 | 3.16 µM [rising, full curve, poor fit] |
| Cc1cc(=O)n(CC(=O)Nc2ccc([N+](=O)[O-])cc2)c(-n2nc(C)cc2C)n1 | 6.31 µM [rising, single point] |
| COc1ccc(CCN2C(=O)c3[nH]nc(-c4ccccc4O)c3C2c2cccc(OC)c2)cc1 (stereo unspecified) | 12.6 µM [falling, partial curve] |
| CCOC(=O)c1ccccc1NC(=O)Cn1c(=O)n(-c2cccc(C)c2)c(=O)c2c1c1cc(C)ccc1n2C | 1.58 µM [falling, full curve] |
| COc1ccc2c(C)cc(SCC(=O)Nc3nsc(-c4ccccc4C)n3)nc2c1 | 7.94 µM [falling, full curve, poor fit] |
| O=C(NCC(c1ccc2c(c1)OCO2)N1CCOCC1)c1cccc(Cl)c1 (stereo unspecified) | 0.0794 µM [rising, full curve, poor fit] |
| Clc1ccc2c(N3CCCC3)ccnc2c1 | 2.51 µM [falling, full curve] |
| O=C(NCc1ccc(Cl)cc1)C(=O)NCC(c1cccs1)S(=O)(=O)c1cccs1 (stereo unspecified) | 12.6 µM [falling, partial curve] |
| Clc1cccc(-n2ncc3c(N4CCC(Cc5ccccc5)CC4)ncnc32)c1 | 3.16 µM [falling, partial curve, poor fit] |
| CCOC(=O)c1c(C)oc2nc(C)nc(NCc3ccc(OC)cc3OC)c12 | 25.1 µM [falling, single point] |
| O=C(CSc1nncn2c1cc1sccc12)Nc1ccc(Br)cc1F | 10 µM [falling, partial curve] |
| O=C(Cn1c(=O)nc(-c2ccccc2)c2ccccc21)NCc1ccc(Cl)cc1 | 31.6 µM [falling, single point] |
| CCc1ccc(NC(=O)CCn2nc(C)c(S(=O)(=O)N3CCCCC3)c2C)cc1 | 3.98 µM [falling, partial curve] |
| CCOC(=O)C1(C)C=C(Nc2cccc(C(=O)O)c2)C(=O)N1c1cccc(C(=O)O)c1 (stereo unspecified) | 12.6 µM [falling, partial curve] |
| CCCCc1nn2c(=O)cc(COC(=O)c3ccc(NC(=O)c4ccccc4C)cc3)nc2s1 | 0.0398 µM [falling, full curve] |

| SMILES | AC50 |
| --- | --- |
| COc1cc2c(cc1OC)C(COc1ccccc1OC)N(C(=O)COc1ccc(Cl)cc1)CC2 (stereo unspecified) | 20 µM [falling, partial curve] |
| COc1ccc(OC)c(CNC(=O)Cc2ccc(NC(=O)N3CCSc4ncccc43)cc2)c1 | 25.1 µM [falling, single point] |
| c1ccc(-c2nc(NCCCN3CCOCC3)c3ccccc3n2)cc1 | 12.6 µM [falling, partial curve] |
| CN(c1ccccc1)S(=O)(=O)c1ccc(NC(=O)c2cc(=O)c3ccccc3o2)cc1 | 10 µM [falling, partial curve] |
| COc1ccc(Nc2cc(C(=O)NCCCN3CCN(c4ccc(OC)cc4)CC3)c3ccccc3n2)cc1 | 31.6 µM [falling, single point] |
| O=C(CCn1cnnn1)Nc1ccc(F)cc1 | 0.0501 µM [falling, full curve] |
| Cc1ccc(CNC(=O)c2coc(=O)c3ccccc23)o1 | 20 µM [rising, partial curve] [measured here: IkB-luc green channel] |
| COc1ccc(-n2ncc(C(=O)NCCc3ccsc3)c2C2CCN(C(=O)OC(C)(C)C)CC2)cc1 | 10 µM [falling, partial curve] |
| COc1cccc(-c2nc(-c3ccccc3)no2)c1 | 15.8 µM [falling, partial curve] |
| Cc1noc(-c2ccc(N3CCCCC3)c([N+](=O)[O-])c2)n1 | 12.6 µM [falling, partial curve] |
| Cc1cc(NC(=O)c2cccc(Cl)c2)ccc1-c1cc2ccccc2oc1=O | 3.98 µM [falling, full curve] |
| CC(=O)N1CCCc2cc(S(=O)(=O)N3CCC(C(=O)NC4CCC(C)CC4)CC3)ccc21 (stereo unspecified) | 25.1 µM [falling, partial curve, poor fit] |
| COC(=O)c1ccc2c(=O)n(CCCCCC(=O)N3CCN(c4ccccc4)CC3)c(=O)[nH]c2c1 | 2 µM [falling, partial curve] |
| CCn1c(C(=O)NCc2ccccc2C)cc2oc3ccccc3c21 | 31.6 µM [falling, single point] |
| COC(=O)c1ccccc1NC(=O)c1ncoc1-c1ccco1 | 39.8 µM [rising, single point] |
| Cc1nc(-c2cccc(NC(=O)Nc3ccc([N+](=O)[O-])cc3)c2)no1 | 39.8 µM [falling, single point] |
| Cc1ccccc1OCCSc1nc2ccc(NC(=O)c3ccccc3)cc2s1 | 15.8 µM [falling, single point] |
| COc1cccc(Nc2ncc3ncc(=O)n(C4CC4)c3n2)c1 | 2 µM [falling, partial curve] [measured here: IkB-luc green channel] |
| O=C(C1CC1)N1CCc2cc(S(=O)(=O)NCC3COc4ccccc4O3)ccc21 (stereo unspecified) | 12.6 µM [falling, partial curve] |
